In PubChem BioAssay AID1347423 (Functional Genomics Laboratory (NCATS/FGL), 2020) one finds z-score data, which are given here for 67 sequences.

Hit rate of the full screen: of about 52,000 sequences, about 210 (0.4%) were called active.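 How the source made its calls: active means gene whose silencing raises cell survival under the drug, median off-target-corrected z-score across its silencing RNAs 2 or more; inactive means the rest.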 The list shows a part of the results.

This experiment can be described thus: Resistance to Poly (ADP-Ribose) Polymerase inhibitor: Gene Identification via Genome-wide siRNA Screen. The conditions noted are these: mouse BRCA2 R2336H ES cells, olaparib, CellTiter-Glo viability; hits give high values. A digest of the protocol: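 Genome-wide siRNA screen (3 siRNAs/gene, 20 nM) in mouse ES cells carrying hypomorphic BRCA2 R2336H; olaparib 500 nM added 48 h post-transfection, CellTiter-Glo viability 72 h later. Normalized to plate-median negative control; MAD z-scores, gene median, seed-adjusted.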
On the technique in general: Cellular ATP, detected with luciferase, serves as a proxy for viable cell number.
On to “GGCACUUAAAAGCCGUAUUTT against 4933440H19Rik”, for which the z-score was inactive: -1.24. On to GGAGGUUGUCAAGUCUCCATT against Tnfrsf8, for which the z-score is inactive: 0.138. For AUGGACCAAGGAAAAGUGUTT against Olfr951, the z-score was inactive: -1.25. Regarding GCAUUACGUAAGAAUGGUUTT against Eif5a, the z-score is inactive: 0.469. Consider GGAUUCUGAAGGAACUUAATT against Slc8a1, for which the z-score is inactive: -2.66. The figure for GGUGGUUGUUGUCAAGGACTT against Rbm3 is inactive: 0.0111; for GCUGAUCCCUUGAGUGAAUTT against Rbm18 it is inactive: -1.03; for GGCUACACUGGAUAUUUUUTT against F12 it is inactive: 0.194. GCAGAAGCGUGGCAUUGUATT against Ins2: the z-score is inactive: -1.07.

Consider GGCUGUACCAAUCUGACACTT against Pvalb, for which the z-score is inactive: 1.18.

Take GGAGUUUGACAAGAAGUACTT against Dnclc1: the z-score was inactive: 1.32. For GCCAUAUAAGUGAAAAUCGTT against Gda the value was inactive: 0.821; for “GCUAACCUUGUUUUACAAGTT against D030056L22”, inactive: 0.871; for GCUUGGGUACUAUGUAACATT against Rbm8, inactive: -0.982. Turning to CCAUUAGCCUUAAUGAUGUTT against BC048403, the z-score is inactive: -0.157.

With CGACCCUCUAAGGAUAUGCTT against Zfp456, the z-score is inactive: -0.812. Regarding CCAGUGAUUACAGAAUUACTT against A4galt, the z-score is inactive: 1.83. The figure for GGAGCAUCUUCUAAAGUAUTT against Wdr1 is inactive: -1.14. The figure for GGUGGUGUUAAAAUAUACUTT against C77032 is inactive: -0.598. The figure for GGACUUACGAGAAAGCGUATT against Tacr1 is inactive: -2.16.

For the sequence GCUCACUUGAUUCUGGUAATT against Lmtn, the z-score was inactive: -1.25. For GCCCUGGUCUAUUCUGACUTT against Gpr152, the z-score was inactive: -0.126. The figure for CGGAAUUGACCUAUUUGCATT against Mmp25 is inactive: 0.35; for GGCCAACAUCAUUGAGGCGTT against Eif2b2 it is inactive: -0.702; for “GGCCUUAACUACUCUGAAGTT against B230365F16Rik” it is inactive: 0.81. With GGCAGCUUUUUACACUAGUTT against V1rc24, the z-score is inactive: 1.5.

For “CUACUCAGGACAUGUCUCATT against 2610109H07Rik”, the z-score was inactive: -0.802. The figure for CGUCAUUUCUCAUCCUGCUTT against Olfr76 is inactive: -0.154; for CCAGUUUACGUGGAAAAAATT against Cox4i1 it is inactive: -0.146.

For “GGGUCUGGAAGAUUUCAAATT against 1700026P10Rik”, the z-score is inactive: 0.507.

On to GCUGAUGAACGAAUACAACTT against Kcnk5, for which the z-score was inactive: -0.89. For “CGUAGCUAAUCCGUAAAAGTT against 1700120K04Rik”, the z-score was inactive: -0.891.

In the case of GGGCUUCCAUCUUUCAUCCTT against Trex2, the z-score is inactive: 2.04. With GCGAACGAGCCUUUAAGCUTT against Fnta, the z-score is inactive: -0.404. With GGAAUAUUGAUGUUUCAACTT against Brrn1, the z-score is inactive: -1.06. As for CUAGCAGGUUCAGAAUUUUTT against Olfr330, the z-score is inactive: -0.366. For CCUUUUUGUGGAAGUCGUUTT against Car1 the value was inactive: -0.425; for GGAGGUAAACAUAACUUAUTT against Ereg, inactive: -0.429; for GGAAAUCAUCUUUUCAGAUTT against Slc7a12, inactive: -0.313.

Regarding “GGAGACCAUAAACAUAUUUTT against 4930449E07Rik”, the z-score was inactive: 0.359. For GGAUUUAUGGCAAGUUUCUTT against Ppp2r5e, the z-score is inactive: 0.323. The figure for “GGAAAUCAAAGAACUGUAUTT against 5730596K20Rik” is inactive: 0.926; for GCCUUCUGUUAAGGUAAGATT against ORF34 it is inactive: -1.2; for GGCCUUCAAGAACUCCUCCTT against Zec it is inactive: 0.43. For “GCGACUCCUAGACAGAAAGTT against 2010204I15Rik”, the z-score is inactive: 0.445. Take GCUGAAGACACUCUGUGAATT against LOC114601: the z-score was inactive: -0.507. Turning to GGCAAUGCACUGCUAUUAUTT against Olfr617, the z-score is inactive: -2.85.

Regarding GGUAGACCAGCUUAAGAAGTT against Gngt1, the z-score was inactive: 1.01. The figure for GCUUAUGAGGUGUUGAGCGTT against Dnaja3 is inactive: 0.532; for GAGAAGUGUCUUGGGAAACTT against Gchfr it is inactive: 0.621. As to GGAGCUAAACUCCUUGAAGTT against Slc22a4, the z-score is inactive: 0.195. The figure for GGACAUCUCCUGUCUGAAUTT against Timm50 is inactive: -1.54; for GCUGGAUAGCACAUGUCUATT against Klk16 it is inactive: 0.836. The figure for GCAAGGAUGAAUCUAUAGATT against Pdgfrb is inactive: 0.277; for GGCAUCACGUCAGAGUACATT against AY487415 it is inactive: 0.915; for GGGACCAAAACCUGCAUUGTT against App it is inactive: -2.85. Consider GGAGAACGUGUUCUUUCCUTT against Procr, for which the z-score was inactive: -0.625.

Take GCGGGCCAUGACAAUUACUTT against Dnb5: the z-score was inactive: -1.42. The figure for GCUAUUGGAGAUAUAAUGGTT against Ace is inactive: 1.72. The figure for “GGACCAGAUUGCUAAUGAGTT against D430015B01Rik” is inactive: 0.733. The figure for “GGCUAUGAGAUUUAGAGCATT against 1700060E18Rik” is inactive: -0.384. As to GGAGAAGUACAAUAAUGACTT against Cacnb1, the z-score is inactive: -0.0976.

In the case of CCAAAGCACAGCAAUUAAUTT against Eif3s10, the z-score was inactive: -2.67. As to GGUUGUACUCUACACCAAGTT against Crtac1, the z-score is inactive: 0.578. Regarding GGACAGCACAAUUACCUUUTT against Nr3c1, the z-score was inactive: -1.19.

On to GGGACUUGUUGCUUAGCAATT against AW555814, for which the z-score was inactive: -3.23.

Turning to GCUCUGUCAGUGAAUGUGATT against Pkd1l2, the z-score is inactive: -0.374.
